In this series the test system is T1, MbkZ (Streptomyces sp. MBK6).
T1 sequence (limits assumed): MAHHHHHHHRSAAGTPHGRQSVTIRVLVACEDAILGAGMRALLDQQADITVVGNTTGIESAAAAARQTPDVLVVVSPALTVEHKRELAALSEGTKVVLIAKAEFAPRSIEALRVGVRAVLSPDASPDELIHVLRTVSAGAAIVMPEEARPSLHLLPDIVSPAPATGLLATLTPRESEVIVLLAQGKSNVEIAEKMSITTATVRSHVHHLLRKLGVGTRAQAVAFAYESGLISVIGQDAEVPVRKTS
Nature of the series: EMSA. To be noted: 266 nM protein, 0.63 nM DNA; 20 mM HEPES, 50 mM (NH4)2SO4, 1 mM DTT, 50 mM KCl, 5 mM MgCl2, 1% Tween 20, 13.3 mM Tris, 80 mM NaCl, 8% glycerol; pH of binding mix not stated; recombinant protein; protein details: N-terminal His-tag plus 12 aa linker; label: 5'-DY682; probe letters rebuilt from the primers and the genome. (In general: Mobility shift assays separate free from complexed probe on a gel.)

Data on 2 sequences can be found in paper PMC8102152.

The exact form of at least one protein or probe is not confirmed. Tags and fusion partners may be left off the protein sequences shown.

Regarding “AGATGGCGTCTGGGAACCGCTGGCTTTGTCATCCCCTCCAGTATGCGCCCATCCGGGCCCGCCGGGGCGATCCCGGCGGCTCCGGATGCCGGCCGGCCGCCCCGCGGCCGCCTCCCGGCCGCTCCCCGTCCTCAACGAATGGTGGAGACCACCGGGTGGGCCGGGGCAGCCTGGCGTGGAGTGGAGAAATCCATCATTGGATGGATGACAGGAATCGGGACGGCTGAAAAACTCAAGCCAGAGTTTCGCATTCAAACACCTCTGCCACCGGCGAACAGGCAGCGCTCCGGCGGGGGCTTGAACACGGGTCTCCCCAATGGCGCGACACCGCTGACACGCTGGTCCGATTTCCGTTTCGCAGCAGACCGGGGGAGTGGCTTGCGCATCAATATTCTGGGGCCCGTTTTCGTCGACGCCGAGGGACAGACACACGCCATTCGCGCCAACAAGGTG (double strand) [mbkD promoter (mbkDp)]”, the binding result is reported as “binds”. For “GAACCGAGGCGACGGAAGGAGGTGGGGTCCCGGTCGATCACGGCGACCGTGTGCCCCTGCTGCTCCAGGGCCTGGGCGAGCGCGGAGCCCACGCGCCCGCAGCCCATGATGACAATGTGCACGGCTTACACCACTCTTCTTCTCTGCCCTCTGACCGCGGTGAACATCCCGTTCATCTTCCTCTTTCGGCTCGACGGGCAAACATCTGCGGCCCCCACCGAGGGCCGCAGCCACCATCATGCCGGTCCACCGCCGTCGCACCCCGGTGGGGTGCTTCGTTTGCGTCGTTCAGTTCCGTTGAACCGGAGTGCGGTACGGCCTCAACACATTGACGGTGGTGTCGGGAATCACCCGTCCTGTGTTGAGGCCCGAATCCGATCGTTCGGTGGATGACGGGTGGGGGAGTGCTTGCCACGATGGACC (double strand) [redD promoter (redDp)]”, the binding result is recorded as “binds”.
